Tested on: aldh5a1+/+ and aldh5a1−/− mice
Assay: Time to immobilization (sedation) after acute i.p. bumetanide
Format: in vivo
Conditions: 100 mg/kg i.p.
Text: FIGS. 5A-5C—Intracellular chloride homeostasis, GABAergic neurotransmission and bumetanide in SSADHD (for abbreviations, see FIG. 1). (FIG. 5A) Schematic diagram of membrane ion transport and mechanism of action of bumetanide. (FIG. 5B) NKCC1 and KCC2 gene expression in the hypothalamus of aldh5a1+/+(n=5) and aldh5a1−/− (n=5) mice collected at postnatal day-of-life 20. Expression data were obtained using q-RT-PCR, validated pathway plates from Bio-Rad. (FIG. 5C) Time to sedation following acute dosing of 100 mg/kg bumetanide. Animals were evaluated at day of life (DOL) 20 and 24 for seizure events, and the time to immobilization (sedation) determined by visual recording using Noldus technology (see text). Bumetanide was administered intraperitoneally to the subject mice after 20 min. of initial observational recording, followed by an additional 20 minutes of recording. Total number of seizures was quantified in 5 min blocks of the total 40 min. recording period. Bumetanide was obtained from Enzo Life Sciences, Inc. (Farmingdale, N.Y., USA) and aseptically dissolved in DMSO vehicle. […] Abbreviations employed: n, number of animals studied; DOL, day of life; sec, seconds; min, minutes.
The potential therapeutic role of NKCC1 inhibition in SSADHD was next examined. […] Applicants' design was to quantify generalized tonic-clonic seizures in 5 minute epochs for 40 minutes in continuum. […]

CCCCNc1cc(C(=O)O)cc(S(N)(=O)=O)c1Oc1ccccc1 [bumetanide]
resistance to sedation in older (DOL 24) vs DOL 20 aldh5a1−/− mice: about 3 fold

Reference: patent publication US20220331448A1, “COMPOSITIONS AND METHODS FOR TREATING SUCCINIC SEMIALDEHYDE DEHYDROGENASE DEFICIENCY (SSADHD)” (Washington State University, priority 2018, published 2022)
